One assay deals with Aspergillus fumigatus. As to the kind of experiment: Antifungal activity against Aspergillus fumigatus assessed as inhibition of fungal growth by CLSI protocol based microbroth dilution method. The assay is classed as functional. For orientation: Broth dilution looks for growth in wells or tubes with falling amounts of substance.
In a further assay the test system is Candida albicans. As to the kind of experiment: Antifungal activity against Candida albicans assessed as inhibition of fungal growth by CLSI protocol based microbroth dilution method. The assay is classed as functional.

≈ marks a conversion by molar mass, not a printed value.

For orientation: MIC means the smallest concentration in the dilution series that meets the test's criterion for growth inhibition.

As for `C[C@@H]1[C@H](O)[C@@H](C)/C=C/C=C/C=C/C=C/C=C/C=C/C=C/[C@H](O[C@@H]2O[C@H](C)[C@@H](O)[C@H](N)[C@@H]2O)C[C@@H]2O[C@](O)(C[C@@H](O)C[C@@H](O)[C@H](O)CC[C@@H](O)C[C@@H](O)CC(=O)O[C@H]1C)C[C@H](O)[C@H]2C(=O)O` [AMPHOTERICIN B], the MIC with Aspergillus fumigatus stood at 2 µg/mL (≈ 2.16 µM); in the assay on Candida albicans, 1 µg/mL (≈ 1.08 µM).

(Values after ChEMBL document CHEMBL5036302, “Amphiol, an Antifungal Fungal Pigment from Pseudogymnoascus sp. PF1464” (2021).)
